Laboratory results: PubChem BioAssay AID1159578 (Peter MacCallum Cancer Centre, 2015)

Aim: 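Genome-wide hunt for genes controlling movement of lymphatic endothelial cells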 (primary screen)
Cells: human lymphatic endothelial cells
Reagents: siRNA pool against human genes, 40 nM
Duration: 48 h after transfection
Read-out: 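High-content imaging of dye-stained cells in a scratch assay measures filled wound area and nuclei per well; duplicate means given as ratio to mock and robust z-score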
Direction: migration robust z-score: higher = faster migration into the scratch; nuclei per well: higher = more cells in the well
Hit rule: 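Migration changed when robust z exceeds 2 or falls below -2 and mean nuclei number is at least 3300; otherwise not called changed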
Calls: active = migration changed; inactive = no migration change, or too few cells
The deposit covers about 18,000 reagents; below is a part drawn at random. About 1,030 of all reagents (5.7%) were called active. 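Inactive calls also include pools with fewer than 3300 nuclei, whose migration was not assessed.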 Raw values are not corrected between plates. Further read-outs or replicates are left out here.

| gene | migration robust z-score | migration class with cell-count check | nuclei per well, duplicate mean | outcome |
| --- | --- | --- | --- | --- |
| ZNF300 | 0.86 | migration z between -2 and 2; enough cells | 5180 | inactive |
| SEBOX | -1.34 | migration z between -2 and 2; enough cells | 7200 | inactive |
| SLC6A11 | -1.45 | migration z between -2 and 2; enough cells | 4365 | inactive |
| TAS2R20 | -0.48 | migration z between -2 and 2; enough cells | 4850 | inactive |
| UBAP1 | -1.12 | migration z between -2 and 2; enough cells | 4915 | inactive |
| RAB3C | 0 | migration z between -2 and 2; enough cells | 5955 | inactive |
| NPB | 0.26 | migration z between -2 and 2; enough cells | 6757 | inactive |
| KRT12 | 0.55 | migration z between -2 and 2; enough cells | 5780 | inactive |
| FSCB | 0.36 | migration z between -2 and 2; enough cells | 3453 | inactive |
| UNC93B1 | 0.26 | migration z between -2 and 2; enough cells | 5548 | inactive |
| NCAPD3 | 0.48 | migration z between -2 and 2; enough cells | 5298 | inactive |
| TMEM176A | -0.41 | migration z between -2 and 2; enough cells | 7214 | inactive |
| LRP3 | -1.71 | migration z between -2 and 2; enough cells | 5660 | inactive |
| GPR176 | 0.08 | migration z between -2 and 2; enough cells | 5889 | inactive |
| OR52H1 | -1.38 | migration z between -2 and 2; enough cells | 5438 | inactive |
| RFTN2 | -1.18 | migration z between -2 and 2; enough cells | 6764 | inactive |
| METTL26 | -1.44 | migration z between -2 and 2; enough cells | 5164 | inactive |
| FCN2 | 2 | migration z between -2 and 2; enough cells | 5924 | inactive |
| LIMK1 | -2.39 | migration z below -2; enough cells | 4238 | active |
| GIMAP5 | 1.31 | migration z between -2 and 2; enough cells | 4886 | inactive |
| ITGB3BP | 0.94 | migration z between -2 and 2; enough cells | 6854 | inactive |
| KLHL11 | 0.22 | migration z between -2 and 2; enough cells | 5799 | inactive |
| APMAP | 1.06 | migration z between -2 and 2; enough cells | 5484 | inactive |
| EIF4G1 | 0.7 | migration z between -2 and 2; enough cells | 5410 | inactive |
| IFNA10 | -0.9 | migration z between -2 and 2; enough cells | 5498 | inactive |

Continued, starting with the last 7 of the part before.
| gene | migration robust z-score | migration class with cell-count check | nuclei per well, duplicate mean | outcome |
| --- | --- | --- | --- | --- |
| LIMK1 | -2.39 | migration z below -2; enough cells | 4238 | active |
| GIMAP5 | 1.31 | migration z between -2 and 2; enough cells | 4886 | inactive |
| ITGB3BP | 0.94 | migration z between -2 and 2; enough cells | 6854 | inactive |
| KLHL11 | 0.22 | migration z between -2 and 2; enough cells | 5799 | inactive |
| APMAP | 1.06 | migration z between -2 and 2; enough cells | 5484 | inactive |
| EIF4G1 | 0.7 | migration z between -2 and 2; enough cells | 5410 | inactive |
| IFNA10 | -0.9 | migration z between -2 and 2; enough cells | 5498 | inactive |
| RAB3B | -0.57 | migration z between -2 and 2; enough cells | 5057 | inactive |
| MUC17 | 0.88 | migration z between -2 and 2; enough cells | 5906 | inactive |
| CHRNA1 | -0.34 | migration z between -2 and 2; enough cells | 4540 | inactive |
| CSNK1G2 | 0.5 | migration z between -2 and 2; enough cells | 4190 | inactive |
| ADCY3 | 0.26 | migration z between -2 and 2; enough cells | 6336 | inactive |
| DIP2A | 0.16 | migration z between -2 and 2; enough cells | 4635 | inactive |
| SOS2 | -0.59 | migration z between -2 and 2; enough cells | 5242 | inactive |
| STING1 | -0.2 | migration z between -2 and 2; enough cells | 5800 | inactive |
| PSMA1 | -1.74 | migration z between -2 and 2; enough cells | 5012 | inactive |
| ZNF12 | 0.5 | migration z between -2 and 2; enough cells | 6084 | inactive |
| SLCO2B1 | -0.96 | migration z between -2 and 2; enough cells | 5236 | inactive |
| TFEC | 0.49 | migration z between -2 and 2; enough cells | 6288 | inactive |
| LPAR5 | -1.4 | migration z between -2 and 2; enough cells | 4962 | inactive |
| IFT56 | 2.5 | migration z above 2; enough cells | 6448 | active |
| EPHX1 | 0.7 | migration z between -2 and 2; enough cells | 5326 | inactive |
| PIR | 0.75 | migration z between -2 and 2; enough cells | 4698 | inactive |
| IQSEC2 | 1.41 | migration z between -2 and 2; enough cells | 5136 | inactive |
| VRTN | -0.98 | migration z between -2 and 2; enough cells | 6276 | inactive |
| KMT2A | -0.52 | migration z between -2 and 2; enough cells | 6040 | inactive |
| CNPY2 | 0.89 | migration z between -2 and 2; enough cells | 6028 | inactive |
| SOX10 | -0.15 | migration z between -2 and 2; enough cells | 5180 | inactive |
| GSTA5 | -0.26 | migration z between -2 and 2; enough cells | 5749 | inactive |
| ODR4 | -0.22 | migration z between -2 and 2; enough cells | 5474 | inactive |
| HIF1AN | 0.08 | migration z between -2 and 2; enough cells | 4198 | inactive |
| CASP10 | -0.9 | migration z between -2 and 2; enough cells | 5060 | inactive |
| RPP38 | -0.44 | migration z between -2 and 2; enough cells | 5810 | inactive |
| CANT1 | 0.6 | migration z between -2 and 2; enough cells | 6368 | inactive |
| VBP1 | 0.26 | migration z between -2 and 2; enough cells | 6015 | inactive |
| CLEC10A | -0.79 | migration z between -2 and 2; enough cells | 4783 | inactive |
| PTH2R | 0.91 | migration z between -2 and 2; enough cells | 5468 | inactive |
| ARHGAP8 | 1.71 | migration z between -2 and 2; enough cells | 5988 | inactive |
| PKNOX1 | 0.44 | migration z between -2 and 2; enough cells | 5567 | inactive |
